From patent publication US8187373B2, “Printing inks for offset and/or high printing containing NIR absorbers and NIR absorbers soluble in offset and/or high printing inks” (BASF SE, priority 2004, dated 2012)
Some results were stated once for a whole list of compounds, not compound by compound.

Assay: Solubility of NIR absorbers in offset printing varnishes (polarization microscopy for undissolved crystals)
Type: physicochemical
Conditions: in both varnishes (heatset varnish and sheet-fed offset varnish); stirred at least 4 hours at 60° C., checked after cooling

CCN1/C(=C/C=C2\CCC(/C=C/C3=[N+](CC)c4ccccc4C3(C)C)=C2Cl)C(C)(C)c2ccccc21 [Compound A2]
solubility: < 0.01 % by weight

CCN1/C(=C/C=C2\CCC(/C=C/C3=[N+](CC)c4ccccc4C3(C)C)=C2Cl)C(C)(C)c2ccccc21 [Compound B3]
solubility: at least 2 % by weight

CCN1/C(=C/C=C2\CCC(/C=C/C3=[N+](CC)c4ccccc4C3(C)C)=C2Cl)C(C)(C)c2ccccc21 [Compound B4]
solubility: at least 2 % by weight
